{"source": "PubChem BioAssay AID540276", "about": "(National Center for Advancing Translational Sciences (NCATS), 2011)", "note": "Hit rate of the full screen: of about 300,000 compounds, about 5,400 (1.8%) were called active. Inconclusive results, whose numbers are uncertain, are shown with a selection of clear calls. Calls follow the shape of the full dose curve; tested in HEK293 cells. Where the call is inconclusive, the potency comes from a doubtful curve fit.", "data": [{"assay": "qHTS for inhibitors of binding or entry into cells for Marburg Virus; also: potency is read from the fitted curve at half-maximal effect", "conditions": "Marburg virus pseudotyped entry inhibition, cell reporter; series mostly up to 37.8 µM", "values": [{"molecule": "Cc1ccc(-n2cc(CNC(C)c3cnn(C)c3)c(-c3ccc(F)cc3)n2)cc1", "note": "(centres undefined)", "Potency": "inconclusive: 3.98 µM [inhibitor, partial curve, poor fit]"}, {"molecule": "COC(=O)/C(=C/c1cccc([N+](=O)[O-])c1)NC(=O)c1ccc(OC)cc1", "Potency": "inactive"}, {"molecule": "C=C(C)CSc1nc2sc3c(c2c(=O)n1C1CCCCC1)CCN(C)C3", "Potency": "inconclusive: 3.98 µM [activator, single point]"}, {"molecule": "CCOc1ccc(NC(=O)Cn2c(=O)n(-c3ccccc3)c(=O)c3c4c(sc32)CCCC4)cc1", "Potency": "inactive"}, {"molecule": "COc1ccc(C(=O)C2CCCN(C3CSCCSC3)C2)c(OC)c1", "note": "(centres undefined)", "Potency": "inconclusive: 35.5 µM [inhibitor, single point]"}, {"molecule": "O=C(CC1SC(N2CCCC2)=NC1=O)Nc1ccc(C(=O)NCc2ccc(F)cc2)cc1", "note": "(centres undefined)", "Potency": "inactive"}, {"molecule": "CCCOc1c(Cl)cc(C(=O)Nc2ccc3c(c2)OCO3)cc1OCC", "Potency": "inconclusive: 20 µM [inhibitor, single point]"}, {"molecule": "CCOc1ccc(CNC(=O)Nc2ccccc2)cc1", "Potency": "inconclusive: 1.26 µM [activator, single point]"}, {"molecule": "Cn1c(=O)c2c(SCC(=O)N3CCCCC3)nc(-c3ccccc3F)nc2n(C)c1=O", "Potency": "inactive"}, {"molecule": "CCc1ccc(S(=O)(=O)c2cn(Cc3ccc(OC)cc3)c3cc(OC)c(OC)cc3c2=O)cc1", "Potency": "inactive"}, {"molecule": "CCC(C)[C@H](NC(=O)N1CCn2c1nc1ccccc12)C(=O)NCc1ccc(OC)cc1", "note": "(some centres undefined)", "Potency": "inconclusive: 10 µM [inhibitor, partial curve, poor fit]"}, {"molecule": "COc1ccc(NS(=O)(=O)c2ccc(C(=O)N3CCC(C)CC3)cc2)cc1", "Potency": "inconclusive: 12.6 µM [inhibitor, single point]"}, {"molecule": "Cc1cccc(N2CCN(C(=O)CCCSc3nc4ccccc4[nH]3)CC2)c1C", "Potency": "inconclusive: 18.3 µM [inhibitor, partial curve, poor fit]"}, {"molecule": "O=C(CSc1nnc(-c2ccncc2)o1)N1CCCCCC1", "Potency": "inactive"}, {"molecule": "O=C(CCS(=O)(=O)c1ccc(Cl)cc1)Nc1ccccc1Br", "Potency": "inactive"}, {"molecule": "Cc1cc(C)c(NC(=O)C2CCCN(C(=O)c3cnn(-c4ccccc4)c3-n3cccc3)C2)c(C)c1", "note": "(centres undefined)", "Potency": "inactive"}, {"molecule": "O=C(Nc1ccc(Cl)cc1)OCCn1nnnc1C(c1ccccc1Cl)N1CCOCC1", "note": "(centres undefined)", "Potency": "inconclusive: 29.1 µM [inhibitor, single point]"}, {"molecule": "COC(=O)c1cc2sccc2n1Cc1nc(-c2ccc(C)cc2)oc1C", "Potency": "inconclusive: 2.82 µM [inhibitor, full curve, poor fit]"}, {"molecule": "CC(=O)Nc1ccc2nc(SCCOc3ccccc3Cl)sc2c1", "Potency": "inconclusive: 1.41 µM [inhibitor, full curve, poor fit]"}, {"molecule": "Cc1cc(C)cc(NC(=O)NCc2c(-c3ccccc3)noc2C)c1", "Potency": "inactive"}, {"molecule": "COc1ccccc1N1CCN(C(=O)CCCn2nc(C)c([N+](=O)[O-])c2C)CC1", "Potency": "inactive"}, {"molecule": "Cc1ccc(-n2c(-c3ccccc3)n[nH]c2=S)cc1", "Potency": "inactive"}, {"molecule": "COc1ccc(NC(=O)COc2ccccc2Cc2ccccc2)cc1S(N)(=O)=O", "Potency": "inconclusive: 8.91 µM [inhibitor, partial curve]"}, {"molecule": "CC(=O)Nc1ccc(S(=O)(=O)Nc2nc3ccccc3nc2Sc2nncn2C)cc1", "Potency": "inactive"}, {"molecule": "CCn1c(C)nc2cc(C(=O)OC(C(F)(F)C(F)F)C(F)(F)C(F)F)ccc21", "Potency": "active: 14.1 µM"}, {"molecule": "N#CC1=C(N)C(C#N)(C#N)C(c2cccnc2)C2CC(c3ccccc3)CC=C12", "note": "(centres undefined)", "Potency": "inactive"}, {"molecule": "C=CCn1c(SCC(=O)Nc2nnc(C)s2)nnc1C1CC1", "Potency": "inconclusive: 0.251 µM [activator, full curve, poor fit]"}, {"molecule": "Cc1ccc(N(CC(=O)N2CCN(c3cccc(C)c3C)CC2)S(=O)(=O)c2c(C)nn(C)c2C)cc1", "Potency": "inconclusive: 35.5 µM [inhibitor, single point]"}, {"molecule": "CCOCCn1c(=NC(=O)/C=C/c2ccccc2Cl)sc2cc(NC(C)=O)ccc21", "Potency": "inconclusive: 10 µM [activator, partial curve, poor fit]"}, {"molecule": "COc1ccc(/C=N/Nc2nc(-c3ccc(C)cc3)c(NC(C)=O)s2)cc1OC", "Potency": "inactive"}, {"molecule": "COc1ccc(N2CCN(Cc3cc4c(cc3Br)OCCO4)CC2)cc1", "Potency": "inactive"}, {"molecule": "Cn1c(CN2CCCC2)nc2cc(NC(=O)c3ccco3)ccc21", "Potency": "inactive"}, {"molecule": "CC(C)OC(=O)C1CC(C)(O)C(=O)C(C(=O)OC(C)C)C1c1ccc([N+](=O)[O-])cc1", "note": "(centres undefined)", "Potency": "inconclusive: 1 µM [inhibitor, full curve, poor fit]"}, {"molecule": "O=C(c1cc(C2CC2)nn1-c1ccccc1)N1CCN(c2ccc(O)cc2)CC1", "Potency": "inactive"}, {"molecule": "CCc1c(C)nc2ncnn2c1NCc1cccs1", "Potency": "inconclusive: 29.1 µM [inhibitor, single point]"}, {"molecule": "Cc1ccc(S(=O)(=O)N2CCC(C(=O)NNC(=O)c3cccnc3)CC2)cc1", "Potency": "inactive"}, {"molecule": "Cc1cc(N2CCN(C3CCCC3)CC2)n2c(nc3ccccc32)c1C#N", "Potency": "inactive"}, {"molecule": "CCOC(=O)C1(Cc2cccc(Cl)c2)CCCN(C(=O)c2cc(C)n(C)n2)C1", "note": "(centres undefined)", "Potency": "inconclusive: 35.5 µM [inhibitor, single point]"}, {"molecule": "CCC(Cc1ccccc1)NC(=O)c1cccc(Nc2nc3ccccc3nc2-n2nc(C)cc2C)c1", "note": "(centres undefined)", "Potency": "inactive"}, {"molecule": "CCc1nnc(NC(=O)CSc2nc3ccccc3s2)s1", "Potency": "inactive"}, {"molecule": "O=C(CN1CCN(Cc2ccccc2)CC1)N1CCCc2c1c(=O)oc1ccc(O)cc21", "Potency": "inconclusive: 29.1 µM [inhibitor, single point]"}, {"molecule": "OC(Cc1ccccc1)(c1ccccc1)C1CN2CCC1CC2", "note": "(centres undefined)", "Potency": "inconclusive: 7.94 µM [inhibitor, partial curve, poor fit]"}, {"molecule": "Cc1cc(C)n(-c2nc3ccccc3nc2N2CCN(S(=O)(=O)c3cccc(C#N)c3)CC2)n1", "Potency": "inconclusive: 11.2 µM [inhibitor, partial curve, poor fit]"}, {"molecule": "NNC(=O)c1ccccc1OCCOc1ccccc1", "Potency": "inactive"}, {"molecule": "FC(F)(F)c1nc2ccccc2c2nc3ccccc3n12", "Potency": "inconclusive: 31.6 µM [activator, single point]"}, {"molecule": "O=c1cc([O-])[n+]2c3n1CCCN3CCC2", "Potency": "inconclusive: 22.4 µM [activator, single point]"}, {"molecule": "Oc1cc2c(cc1O)[C@@H](c1ccccc1)CNCC2", "Potency": "inactive"}, {"molecule": "CCOC(=O)C1(CCOC)CCN(Cc2ccccc2-c2ccco2)CC1", "Potency": "inconclusive: 10 µM [inhibitor, partial curve, poor fit]"}, {"molecule": "N/C(=N\\OC(=O)CCCOc1ccccc1)c1ccncc1", "Potency": "inactive"}, {"molecule": "CN1CCN(C(=O)c2ccc3ccccc3c2)CC1", "Potency": "inconclusive: 10.3 µM [activator, partial curve, poor fit]"}, {"molecule": "C=CCN1C(=O)C(CC(=O)Nc2ccccc2)S/C1=N/c1nccs1", "note": "(centres undefined)", "Potency": "inconclusive: 12.6 µM [inhibitor, partial curve, poor fit]"}, {"molecule": "O=C(O)CC(NC(=O)C12CC3CC(CC(C3)C1)C2)c1ccc(OC2CCCC2)cc1", "note": "(centres undefined)", "Potency": "inconclusive: 6.31 µM [activator, partial curve]"}, {"molecule": "CSCCC(NC(=O)c1ccc(Cl)cc1Cl)C(=O)NCc1ccccn1", "note": "(centres undefined)", "Potency": "inconclusive: 14.1 µM [activator, single point]"}, {"molecule": "COc1cc(C=O)ccc1OC(=O)Nc1ccccc1", "Potency": "inconclusive: 17.8 µM [activator, single point]"}, {"molecule": "Cc1ccc2c(CN3CCN(C(=O)c4ccco4)CC3)cc(=O)oc2c1C", "Potency": "inconclusive: 39.8 µM [inhibitor, partial curve, poor fit]"}, {"molecule": "Cc1cc(NC(=O)C(C)SCC(=O)N(C)Cc2c(F)cccc2Cl)no1", "note": "(centres undefined)", "Potency": "inconclusive: 20 µM [inhibitor, single point]"}, {"molecule": "C1CCN=C(NC23CC4CC(CC(C4)C2)C3)CC1", "Potency": "inconclusive: 29.1 µM [activator, single point]"}, {"molecule": "Cc1ccc(C(C)(C)C)cc1S(=O)(=O)Nc1cccc(C(=O)N2CCN(c3ccccn3)CC2)c1", "Potency": "inconclusive: 22.4 µM [inhibitor, single point]"}, {"molecule": "CCOC(=O)c1sc(NC(=O)c2ccc(CC)s2)nc1C", "Potency": "inconclusive: 8.2 µM [inhibitor, partial curve, poor fit]"}, {"molecule": "O=C(N/N=C/c1ccccn1)c1cccc(S(=O)(=O)Nc2ccccc2Cl)c1", "Potency": "inactive"}, {"molecule": "CCn1c(O)c(C=Nc2ccccc2)n(-c2ccccc2)c1=S", "Potency": "inconclusive: 7.94 µM [inhibitor, partial curve, poor fit]"}, {"molecule": "CO/N=C/C(=N\\Nc1cc(OC)cc(OC)c1)C(=O)c1ccccc1", "Potency": "inconclusive: 11.2 µM [inhibitor, partial curve, poor fit]"}, {"molecule": "Cc1[nH]c2ccc(C(=O)N3CCC(C(N)=O)CC3)cc2c1C", "Potency": "inactive"}, {"molecule": "Clc1ccc(CNc2ncnc3onc(-c4ccc(Cl)cc4)c23)cc1", "Potency": "inconclusive: 15.8 µM [inhibitor, single point]"}, {"molecule": "Cc1ccc(Cl)cc1N1CCN(C(=O)c2cn(C)c(=O)c3c2c2ccccc2n3C)CC1", "Potency": "inconclusive: 14.6 µM [inhibitor, partial curve, poor fit]"}, {"molecule": "CN1C(=O)c2ccccc2Sc2ccc(NC(=O)N3CCN(c4cccc(Cl)c4)CC3)cc21", "Potency": "active: 11.2 µM"}, {"molecule": "CCC1CCCCN1S(=O)(=O)c1ccc(C(=O)Nc2nnc(-c3cccs3)o2)cc1", "note": "(centres undefined)", "Potency": "inconclusive: 7.94 µM [inhibitor, partial curve, poor fit]"}, {"molecule": "CCC(C)NC(=O)Cn1c(COc2ccc(Cl)cc2Cl)nc2ccccc21", "note": "(centres undefined)", "Potency": "inconclusive: 0.398 µM [activator, full curve, poor fit]"}, {"molecule": "CN1CCc2c1nc1ccccc1c2NC(=O)CN1CCCC1", "Potency": "inconclusive: 35.5 µM [inhibitor, single point]"}]}]}
